Assay results published in article PMC9223896.
Results are given in words; binding and its absence hold for the method and conditions named. In cells and extracts the contact can be indirect. Some binding calls cover weakened binding; strength is not graded here. For some assays here: Tags and fused reporters may be left off the sequences shown.

What was measured:
[1] = target: T1, endogenous NAT10 (human (endogenous in VCaP and PC-3)) (UniProt Q9H0A0); test: co-IP; endogenous proteins in VCaP cell lysate; immunoprecipitation with NAT10 antibody and with CDC6 antibody, protein A/G agarose, overnight at 4 °C; immunoblot
T1 sequence: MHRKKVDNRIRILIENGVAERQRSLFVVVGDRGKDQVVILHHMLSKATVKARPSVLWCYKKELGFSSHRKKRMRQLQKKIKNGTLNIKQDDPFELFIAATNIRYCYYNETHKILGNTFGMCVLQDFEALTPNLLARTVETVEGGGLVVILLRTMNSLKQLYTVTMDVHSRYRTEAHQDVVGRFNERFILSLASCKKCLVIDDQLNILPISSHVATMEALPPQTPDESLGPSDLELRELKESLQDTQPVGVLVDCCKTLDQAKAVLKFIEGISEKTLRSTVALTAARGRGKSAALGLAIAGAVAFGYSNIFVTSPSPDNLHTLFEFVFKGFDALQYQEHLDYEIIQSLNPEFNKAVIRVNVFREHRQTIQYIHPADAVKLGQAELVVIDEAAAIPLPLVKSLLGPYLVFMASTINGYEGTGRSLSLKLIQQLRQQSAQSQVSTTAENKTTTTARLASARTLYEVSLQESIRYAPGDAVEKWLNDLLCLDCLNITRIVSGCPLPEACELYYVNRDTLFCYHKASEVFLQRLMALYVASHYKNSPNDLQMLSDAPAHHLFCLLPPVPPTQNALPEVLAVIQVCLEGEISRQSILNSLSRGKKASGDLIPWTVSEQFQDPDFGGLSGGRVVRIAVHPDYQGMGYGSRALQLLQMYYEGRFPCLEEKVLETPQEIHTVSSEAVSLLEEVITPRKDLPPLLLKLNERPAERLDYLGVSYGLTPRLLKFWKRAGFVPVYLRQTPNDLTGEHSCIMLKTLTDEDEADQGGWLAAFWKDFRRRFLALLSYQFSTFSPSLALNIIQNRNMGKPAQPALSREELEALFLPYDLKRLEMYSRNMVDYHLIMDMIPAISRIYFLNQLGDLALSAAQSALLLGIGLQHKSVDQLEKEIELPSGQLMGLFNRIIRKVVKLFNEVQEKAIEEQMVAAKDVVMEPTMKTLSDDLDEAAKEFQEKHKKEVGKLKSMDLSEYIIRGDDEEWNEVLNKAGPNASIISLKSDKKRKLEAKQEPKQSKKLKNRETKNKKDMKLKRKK

[2] = target: T2, GFP-NAT10 (N-acetyltransferase 10 in pEGFP-C3) (UniProt Q9H0A0); test: co-IP; VCaP and PC-3 cells transfected with GFP-NAT10 or Flag-CDC6; lysate; anti-GFP mAb-agarose or anti-DDDDK-tag pAb agarose; endogenous partner detected by immunoblot
T2 sequence: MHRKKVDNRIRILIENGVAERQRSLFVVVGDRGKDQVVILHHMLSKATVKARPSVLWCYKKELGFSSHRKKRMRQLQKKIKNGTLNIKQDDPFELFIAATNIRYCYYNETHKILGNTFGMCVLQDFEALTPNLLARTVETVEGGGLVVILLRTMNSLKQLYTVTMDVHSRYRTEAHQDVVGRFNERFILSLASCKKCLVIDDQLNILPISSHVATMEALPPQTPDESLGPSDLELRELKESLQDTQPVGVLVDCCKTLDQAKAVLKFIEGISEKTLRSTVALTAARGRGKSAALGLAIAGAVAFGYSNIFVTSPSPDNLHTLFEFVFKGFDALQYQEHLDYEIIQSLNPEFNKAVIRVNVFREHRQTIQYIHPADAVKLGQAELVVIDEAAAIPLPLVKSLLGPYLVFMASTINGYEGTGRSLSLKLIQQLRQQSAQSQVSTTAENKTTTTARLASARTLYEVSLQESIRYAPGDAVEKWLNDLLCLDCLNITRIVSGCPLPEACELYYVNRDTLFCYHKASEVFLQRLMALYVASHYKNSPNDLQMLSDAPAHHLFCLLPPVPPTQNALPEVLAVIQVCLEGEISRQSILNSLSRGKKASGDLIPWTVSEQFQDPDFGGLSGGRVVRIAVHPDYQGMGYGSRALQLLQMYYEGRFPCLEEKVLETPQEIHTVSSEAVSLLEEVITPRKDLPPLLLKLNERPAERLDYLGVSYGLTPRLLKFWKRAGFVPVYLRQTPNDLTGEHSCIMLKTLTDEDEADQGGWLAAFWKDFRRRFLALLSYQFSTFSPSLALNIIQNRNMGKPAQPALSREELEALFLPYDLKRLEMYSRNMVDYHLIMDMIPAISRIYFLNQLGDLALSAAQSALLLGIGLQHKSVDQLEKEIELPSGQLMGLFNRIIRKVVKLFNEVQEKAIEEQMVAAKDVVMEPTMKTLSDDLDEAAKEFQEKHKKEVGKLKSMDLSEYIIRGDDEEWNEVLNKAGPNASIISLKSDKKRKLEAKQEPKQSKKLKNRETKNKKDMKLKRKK

B1: endogenous CDC6 (protein, UniProt Q99741 1-560)
chain: MPQTRSQAQATISFPKRKLSRALNKAKNSSDAKLEPTNVQTVTCSPRVKALPLSPRKRLGDDNLCNTPHLPPCSPPKQGKKENGPPHSHTLKGRRLVFDNQLTIKSPSKRELAKVHQNKILSSVRKSQEITTNSEQRCPLKKESACVRLFKQEGTCYQQAKLVLNTAVPDRLPAREREMDVIRNFLREHICGKKAGSLYLSGAPGTGKTACLSRILQDLKKELKGFKTIMLNCMSLRTAQAVFPAIAQEICQEEVSRPAGKDMMRKLEKHMTAEKGPMIVLVLDEMDQLDSKGQDVLYTLFEWPWLSNSHLVLIGIANTLDLTDRILPRLQAREKCKPQLLNFPPYTRNQIVTILQDRLNQVSRDQVLDNAAVQFCARKVSAVSGDVRKALDVCRRAIEIVESDVKSQTILKPLSECKSPSEPLIPKRVGLIHISQVISEVDGNRMTLSQEGAQDSFPLQQKILVCSLMLLIRQLKIKEVTLGKLYEAYSKVCRKQQVAAVDQSECLSLSGLLEARGILGLKRNKETRLTKVFFKIEEKEIEHALKDKALIGNILATGLP
- binding [1]: binds
- binding [2]: binds
